Laboratory results published in PubChem BioAssay AID1487 (National Center for Advancing Translational Sciences (NCATS), 2009).
The campaign covered roughly 200,000 compounds. About 25 (0.01%) were called active. The inconclusive results got no clear call from the source; some entries with a clear call stand among them for comparison. The call rests on the fitted dose curve; in most records, active means well fitted inhibition curve with a large enough effect in the signal ratio, with a control signal flat (not every such curve was filed as active); inconclusive means small, poorly fitted or top-dose-only effect, or effect the other way, or a change in a side signal; inactive means flat fitted curve, though single readings scatter; the % refers to the signal ratio. A potency beside an inconclusive call is a rough fit, not a confirmed value.

Experiment: qHTS Assay for Modulators of Lamin A Splicing
Details: HeLa LMNA splicing GFP/RFP minigene ratio, 48 h; ratio change, negative = inhibition: at 46.1 µM (top of the series) unless noted
Procedure, shortened: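 S3 HeLa stable clones carrying a lamin A-EGFP splicing minigene plus DsRed2 were seeded at 600 cells/well in Opti-MEM with 2% FBS, pin-dosed and incubated 48 h at 37°C. Acumen cytometry (488 nm) gave the GFP/RFP total-intensity ratio.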
On the % scale 0 is the no-effect control and ±100 the full control effect; potency means the concentration at half of the fitted maximal effect.

Row | SMILES | ratio change, negative = inhibition | Potency
1 | Cc1ccc(C)c(N2C(=O)c3cc(N4CCOCC4)c([N+](=O)[O-])cc3C2=O)c1 | inactive: 2.17% | 
2 | Cc1nn(-c2ccccc2)c(Cl)c1C(=O)Nc1nnc(C2CCCCC2)s1 | inconclusive: -2.55% | 
3 | O=C(NCc1ccccn1)c1ccc(Cn2cc(Br)cn2)o1 | inactive: -3.26% | 
4 | COc1ccc(-c2[nH]ncc2CN2CCC(N3CCSCC3)CC2)c(F)c1 | inconclusive: -11.1% [at 46 µM] | 
5 | CCCCC(=O)Nc1ccc2c3c(cccc13)C(=O)N2CC |  | inconclusive: 11.2 µM [inhibitor, single point]
6 | Cc1ccc(C)c(NC(=O)Cn2nc(C)c3nn(-c4ccc(Cl)cc4)c(C)c3c2=O)c1 | inconclusive: 11% [at 46 µM] | 
7 | CCOC(=O)c1cccc(NC(=O)c2cccs2)c1 | inactive: -5.76% | 
8 | Cn1cnc(S(=O)(=O)N2CCCC(C(=O)NCc3ccc(Cl)cc3)C2)c1 (centres undefined) | inactive: 6.02% [at 46 µM] | 
9 | CC(C)(C)C(=O)C(Oc1ccc(Cl)cc1)n1ccnc1 (centres undefined) | inconclusive: -41.6% | 
10 | Cc1ccc(Nc2nc(-c3ccc(C)cc3)c(CC(=O)O)s2)cc1 | inactive: -27.8% [at 46 µM] | 
11 | CC(=O)N1CCCc2cc(S(=O)(=O)N3CCN(c4ccccc4F)CC3)ccc21 | inconclusive: 14.6% [at 46 µM] | 
12 | COc1ccc(/C=C2\CN(Cc3ccccc3)C/C(=C\c3ccc(OC)cc3)C2=O)cc1 |  | inconclusive: 35.5 µM [cytotoxic, single point]
13 | CN(C)c1ccc(C(=O)OCC(=O)NC2CCCCCC2)cc1 | inactive: -21.1% [at 46 µM] | 
14 | CCCCN(C(=O)NC(=O)Nc1nc2ccc(OC)cc2s1)S(C)(=O)=O | inactive: 12.8% | 
15 | Nc1cc(Cl)ccc1Oc1ccccc1 | inactive: 2% | 
16 | COc1ccccc1C1CC(=O)NC(SCC(=O)Nc2ccccc2)=C1C#N (centres undefined) | inactive: -0.868% | 
17 | CCCCNC(=O)CN1C(=O)c2cccnc2Sc2ccccc21 | inactive: -3.88% [at 46 µM] | 
18 | CCOc1c(Cl)cc(/C=N/NC(N)=S)cc1OC | inconclusive: 13.1% | 
19 | CCCCCCCCNC(=O)CCNC(=O)c1ccc(C(C)(C)C)cc1 | inconclusive: -7.79% | 
20 | Cc1nc2c(C)cccc2cc1C(=O)N/N=C/c1cccc([N+](=O)[O-])c1 |  | inconclusive: 35.5 µM [falling, single point]
21 | OC1CCCN(Cc2ccc3ccc4cccc5ccc2c3c45)C1 (centres undefined) | inconclusive: -13.7% | 
22 | COc1cc(C(=O)OCC(=O)Nc2ccc(SC(F)F)cc2)cc(OC)c1OC | inconclusive: -41.2% | 
23 | COc1ccc(OC)c(NC(=O)Cn2c(=O)c3cccn3c3ccccc32)c1 | inconclusive: -19.3% [at 46 µM] | 
24 | CC(C)(C)C(=O)COc1ccccc1[N+](=O)[O-] | inconclusive: -32.7% [at 46 µM] | 
25 | Cc1ccc2nc(NC3=NC(CC(=O)O)C(=O)N3)nc(C)c2c1 (centres undefined) | inactive: -11.4% [at 46 µM] | 
26 | Cc1nc2sc3c(c2c(=O)n1N)CCC3 | inconclusive: -10.7% [at 46 µM] | 
27 | O=C(NCC(c1cccs1)N1CCOCC1)c1ccccc1NS(=O)(=O)c1cc([N+](=O)[O-])ccc1Cl (centres undefined) |  | inconclusive: 35.5 µM [falling, single point]

An excerpt from above in order of number of heavy atoms, descending:
Row | SMILES | ratio change, negative = inhibition | Potency
27 | O=C(NCC(c1cccs1)N1CCOCC1)c1ccccc1NS(=O)(=O)c1cc([N+](=O)[O-])ccc1Cl (centres undefined) |  | inconclusive: 35.5 µM [falling, single point]
1 | Cc1ccc(C)c(N2C(=O)c3cc(N4CCOCC4)c([N+](=O)[O-])cc3C2=O)c1 | inactive: 2.17% | 
5 | CCCCC(=O)Nc1ccc2c3c(cccc13)C(=O)N2CC |  | inconclusive: 11.2 µM [inhibitor, single point]

Continuation.

Row | SMILES | ratio change, negative = inhibition | Potency
28 | CCCCNc1nc2ccccc2n1CC(=O)Nc1c(C)cccc1CC | inconclusive: 8.18% | 
29 | CC(=O)Sc1nc(-c2ccccc2)[nH]c1S(=O)(=O)c1ccc(C)cc1 |  | inconclusive: 35.5 µM [inhibitor, single point]
30 | O=C(NCCc1ccccc1)C1CCN(C(=O)NCc2ccccc2)CC1 | inactive: -1.2% | 
31 | COc1ccc(NS(=O)(=O)c2ccc(N/N=C(\C)c3ccncc3)c([N+](=O)[O-])c2)cc1 | inconclusive: -54.1% | 
32 | Cc1cc2nnc(SCC(=O)Nc3cccc(S(=O)(=O)N4CCOCC4)c3)n2c2ccccc12 | inactive: -14.4% | 
33 | COc1ccc(C(c2nnnn2C2CCCC2)N2CCN(C3CCCC3)CC2)cc1OC (centres undefined) | inactive: -4.45% | 
34 | CCCCc1sc(-c2c(C#N)c(N)nc3c2CCCCC3)cc1[N+](=O)[O-] | inconclusive: 15.2% | 
35 | CS(=O)(=O)c1ccc(C(=O)OCC(=O)NC(=O)C2CCCCC2)cc1[N+](=O)[O-] |  | inconclusive: 35.5 µM [rising, partial curve]
36 | Cc1cc(C(=O)CSc2ccc3c(c2)OCCO3)c(C)n1C1CC1 |  | inconclusive: 35.5 µM [fluorescent, single point]
37 | COCCn1c(C(C)C)nc2sc3ccccc3c(=O)c2c1=O | inactive: 2.66% | 
38 | O=c1cnc2cnc(Oc3cccc(Cl)c3)nc2n1CCc1ccccc1 | inactive: 13.8% | 
39 | Cc1ccccc1NC(=O)CSCC(=O)Nc1ccccc1C | inactive: 8.28% | 
40 | Cc1ccc(/C=C2\SC(=S)N(c3cccnc3)C2=O)cc1 | inconclusive: -17.3% [at 46 µM] | 
41 | COc1cccc(COCC(O)Cn2cnc3cc(C)c(C)cc32)c1 (centres undefined) | inconclusive: 1.34% [at 46 µM] | 
42 | COc1ccc(CCC(=O)NCc2ccc3c(c2)CCN3C(=O)c2ccccc2)cc1 | inconclusive: 4.8% [at 46 µM] | 
43 | Cc1ccc(C)c(NC(=S)NC(NC(=O)Cc2cccc3ccccc23)C(Cl)(Cl)Cl)c1 (centres undefined) | inconclusive: 38.1% | 
44 | COc1ccc2[nH]cc(CCNc3ccnc(-c4cccnc4)n3)c2c1 | inconclusive: -28.5% | 
45 | CCOC(=O)c1[nH]c(C)c(C(=O)Nc2ccc(C)cc2C)c1C |  | inconclusive: 6.31 µM [falling, full curve, poor fit]
46 | O=C(O)CCCn1nc(C(F)(F)F)c2c1CCCCC2 | inactive: -3.01% | 
47 | COc1ccccc1NS(=O)(=O)c1ccc(Cl)c(NC(=O)C(C)N2C(=O)c3ccccc3C2=O)c1 (centres undefined) | inactive: 4.93% | 
48 | COc1ccc(-n2nc(C(=O)NCC(=O)NCC3COc4ccccc4O3)c3ccccc3c2=O)cc1OC (centres undefined) | inconclusive: -36% [at 46 µM] | 
49 | Cc1cc2c(cc1C)CSC(c1ccccc1OC(=O)C(C)C)SC2 | inconclusive: -25.6% | 
50 | CCOc1ccc(CNC(=O)c2cnc3sc(N4CCOCC4)nn3c2=O)cc1OC | inactive: 12% [at 46 µM] | 
51 | COCCn1c(CN2CCc3ccccc3C2)nc2c1c(=O)n(C)c(=O)n2C | inconclusive: -5.65% [at 46 µM] | 
52 | O=C(Oc1ccccc1N1C(=O)CCC1=O)c1ccco1 | inconclusive: 8.1% | 
53 | Cc1occc1C(=O)Nc1cccc([N+](=O)[O-])c1 | inactive: 12% | 
54 | Cn1cccc1CC(=O)N/N=C/c1cc([N+](=O)[O-])ccc1Cl | inconclusive: 3.3% [at 46 µM] | 
